{"source": "PubChem BioAssay AID652243, Drosophila RNAi Screening Center | 2013", "aim": "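Knock-downs that decrease or increase androgen receptor reporter signal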 (primary screen)", "system": "Drosophila S2R+ cells", "reagents": "long dsRNA against Drosophila genes", "time to read-out": "72 h (48 h, then 24 h hormone)", "challenge": "synthetic androgen R1881 at 10 nM for 24 h", "read-out": "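Firefly light from an androgen-responsive reporter and Renilla control light per well, raw and unnormalised, for each of two replicates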", "direction": "firefly reporter light: higher = more light from androgen-responsive reporter; Renilla control light: higher = more constitutive control signal (cell number, transfection)", "hit rule": "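Hit when the log firefly-to-Renilla ratio dropped or increased by a fixed fold versus the mean of GFP or LacZ controls across duplicate plates; lowering cut given as 1.5 and as 3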", "calls": "active = hit: reporter lowered or raised; inactive = no hit", "note": "In all, the deposit lists about 24,000 reagents; this is an unselected part of those with a known target gene and a result. Over the whole deposit, 246 (1%) were called active. 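Plates not normalised; calls are printed but the firefly/Renilla ratio behind them is not deposited; fold cut for lowering reported inconsistently.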 Raw values are not corrected between plates. No sequences are given here. Not given: the amount of reagent."}
{"gene knocked down": "fd3F", "amplicon": "DRSC23032", "firefly reporter light, replicate 1": 7.28e5, "firefly reporter light, replicate 2": 1.00e6, "Renilla control light, replicate 1": 1.20e6, "Renilla control light, replicate 2": 1.45e6, "call": "inactive"}
{"gene knocked down": "MED10", "amplicon": "DRSC10474", "firefly reporter light, replicate 1": 1.95e5, "firefly reporter light, replicate 2": 1.81e5, "Renilla control light, replicate 1": 1.79e6, "Renilla control light, replicate 2": 1.41e6, "call": "inactive"}
{"gene knocked down": "CG17724", "amplicon": "DRSC06687", "firefly reporter light, replicate 1": 4.21e5, "firefly reporter light, replicate 2": 4.90e5, "Renilla control light, replicate 1": 8.88e5, "Renilla control light, replicate 2": 9.96e5, "call": "inactive"}
{"gene knocked down": "CG17724", "amplicon": "DRSC27618", "firefly reporter light, replicate 1": 1.82e5, "firefly reporter light, replicate 2": 2.24e5, "Renilla control light, replicate 1": 5.01e5, "Renilla control light, replicate 2": 7.47e5, "call": "inactive"}
{"gene knocked down": "CG10062", "amplicon": "DRSC05960", "firefly reporter light, replicate 1": 3.29e5, "firefly reporter light, replicate 2": 4.75e5, "Renilla control light, replicate 1": 4.06e5, "Renilla control light, replicate 2": 3.27e5, "call": "inactive"}
{"gene knocked down": "CG10062", "amplicon": "DRSC22535", "firefly reporter light, replicate 1": 5.97e5, "firefly reporter light, replicate 2": 4.81e5, "Renilla control light, replicate 1": 2.48e6, "Renilla control light, replicate 2": 1.73e6, "call": "inactive"}
{"gene knocked down": "CG10062", "amplicon": "DRSC24932", "firefly reporter light, replicate 1": 1.18e6, "firefly reporter light, replicate 2": 1.12e6, "Renilla control light, replicate 1": 1.21e6, "Renilla control light, replicate 2": 1.02e6, "call": "inactive"}
{"gene knocked down": "CG14879", "amplicon": "DRSC15003", "firefly reporter light, replicate 1": 1.85e5, "firefly reporter light, replicate 2": 1.80e5, "Renilla control light, replicate 1": 2.71e6, "Renilla control light, replicate 2": 2.21e6, "call": "inactive"}
{"gene knocked down": "CG14879", "amplicon": "DRSC28083", "firefly reporter light, replicate 1": 4.55e5, "firefly reporter light, replicate 2": 4.10e5, "Renilla control light, replicate 1": 1.52e6, "Renilla control light, replicate 2": 1.25e6, "call": "inactive"}
{"gene knocked down": "RpL11", "amplicon": "DRSC07537", "firefly reporter light, replicate 1": 4.26e5, "firefly reporter light, replicate 2": 3.43e5, "Renilla control light, replicate 1": 5.48e5, "Renilla control light, replicate 2": 5.49e5, "call": "inactive"}
{"gene knocked down": "RpL11", "amplicon": "DRSC26217", "firefly reporter light, replicate 1": 2.09e5, "firefly reporter light, replicate 2": 2.08e5, "Renilla control light, replicate 1": 4.21e5, "Renilla control light, replicate 2": 3.08e5, "call": "inactive"}
{"gene knocked down": "Wee1", "amplicon": "DRSC03635", "firefly reporter light, replicate 1": 1.77e5, "firefly reporter light, replicate 2": 2.39e5, "Renilla control light, replicate 1": 1.75e6, "Renilla control light, replicate 2": 2.02e6, "call": "inactive"}
{"gene knocked down": "Wee1", "amplicon": "DRSC23318", "firefly reporter light, replicate 1": 4.61e5, "firefly reporter light, replicate 2": 5.25e5, "Renilla control light, replicate 1": 1.67e6, "Renilla control light, replicate 2": 1.92e6, "call": "inactive"}
{"gene knocked down": "Wee1", "amplicon": "DRSC36678", "call": "inactive"}

In a second layout: entries from further up
gene knocked down | amplicon | firefly reporter light, replicate 1 | firefly reporter light, replicate 2 | Renilla control light, replicate 1 | Renilla control light, replicate 2 | call
CG14879 | DRSC15003 | 1.85e5 | 1.80e5 | 2.71e6 | 2.21e6 | inactive
CG14879 | DRSC28083 | 4.55e5 | 4.10e5 | 1.52e6 | 1.25e6 | inactive
